The text below walks through data of the supplement of paper PMC4840960.

The subject of this experiment is E18 rat cortical neuron-glia co-culture. In words: total nuclei (DAPI) / Olig2+ nuclei (ratio); higher = more depletion of OPC/OL lineage cells. The conditions noted are these: treatment time: 8 days (DIV5-DIV13).

Each structure is given as a SMILES string. Structures can show the parent of a compound that is named as a salt. ± gives the standard deviation of the averaged measurements. The list shows a part of the results. Plates or batches differ in their baseline, so values are only roughly comparable.

Regarding `CN1C(=O)CN=C(c2ccccc2)c2cc(Cl)ccc21` [Diazepam], the total nuclei is, setting by setting: (1 µM) 2.79; (5 µM) 3.

Regarding `NC1=NC(=O)C(c2ccccc2)O1` (centres undefined) [Pemoline], the total nuclei was 3.35 (1 µM) and 4 (5 µM).

In the case of `Oc1ccc2c3c1O[C@H]1[C@@H](O)CC[C@@]4(O)[C@@H](C2)N(CC2CCC2)CC[C@]314` [Nalbufina], the total nuclei (1 µM) was determined as 5.06 and the total nuclei (5 µM) is 5.5.

As to `Cc1ccc(-c2nc3ccc(C)cn3c2CC(=O)N(C)C)cc1` [Zolpidem], the total nuclei is, setting by setting: (1 µM) 2.92; (5 µM) 3.

Regarding `C[C@]12CC[C@H]3[C@@H](CCC4=CC(=O)CC[C@@]43C)[C@@H]1CC[C@@H]2O` [Testosterone], the total nuclei reads like this: (1 µM) 3.17 ± 0.81; (5 µM) 2.4.

As for `CN1CC[C@@H](c2ccc(F)cc2)[C@H](COc2ccc3c(c2)OCO3)C1` [N-Methylparoxetine], the total nuclei reads like this: (1 µM) 4.22; (5 µM) 7.

Take `O=C1CN=C(c2ccccc2)c2cc([N+](=O)[O-])ccc2N1` [Nitrazepam]: the total nuclei runs as follows: (1 µM) 3.21; (5 µM) 3.3.

`C[N+]1(CCC(C(N)=O)(c2ccccc2)c2ccccc2)CCCCC1` [Fenpiverinium]: the total nuclei was 4.15 (1 µM) and 23.1 (5 µM).

For the molecule `NCCc1ccccn1` [2-(2-aminoethyl)pyridine], the total nuclei turned out to be 2.54 (1 µM) and 2.6 (5 µM).

On to `O=C(O)CCCc1ccc(N(CCCl)CCCl)cc1` [Chlorambucil], for which the total nuclei came out at 2.8 (1 µM) and 3.2 (5 µM).

`CN1CC[C@]2(c3cccc(O)c3)Cc3nc4ccccc4cc3C[C@H]2C1`: the total nuclei reads like this: (1 µM) 4.4; (5 µM) 4.8.

With `CN1[C@@H]2CC[C@H]1C[C@@H](OC(=O)[C@H](CO)c1ccccc1)C2` [Hyoscyamine], the total nuclei runs as follows: (1 µM) 4.04; (5 µM) 3.7.

Consider `Cc1nnc2n1-c1ccc(Cl)cc1C(c1ccccc1)=NC2` [Alprazolam], for which the total nuclei is, setting by setting: (1 µM) 3.4; (5 µM) 3.8.

With `O=P1(N(CCCl)CCCl)NCCCO1` (centres undefined) [Cyclophosphamide], the total nuclei reads like this: (1 µM) 2.8; (5 µM) 2.9.

Regarding `O=C1Nc2ccc(Cl)cc2C(c2ccccc2Cl)=NC1O` (centres undefined) [Lorazepam], the total nuclei is, setting by setting: (1 µM) 3.56; (5 µM) 5.3.

As to `c1cncc([C@@H]2CCCN2)c1` [Nornicotine], the total nuclei (1 µM) worked out at 3.59 and the total nuclei (5 µM) was 3.9.

On to `COc1cc([C@@H]2c3cc4c(cc3[C@H](O)[C@H]3COC(=O)[C@H]23)OCO4)cc(OC)c1OC` [Podophyllotoxin], for which the total nuclei turned out to be 3.95 (1 µM) and 3.9 (5 µM).

For `CC[C@]1(O)CC[C@H]2[C@@H]3CCC4=CCCC[C@@H]4[C@H]3CC[C@@]21C` [Ethylestrenol], the total nuclei is, setting by setting: (1 µM) 2.72; (5 µM) 5.5.

For the molecule `CC(C)CC(N(C)C)C1(c2ccc(Cl)cc2)CCC1` (centres undefined) [Sibutramine], the total nuclei runs as follows: (1 µM) 3.92 ± 0.45; (5 µM) 3.65 ± 0.21.

`CCN(CC)CCOC(=O)C(O)(c1ccccc1)c1ccccc1` [Benactyzine]: the total nuclei was 2.73 (1 µM) and 2.9 (5 µM).

On to `CN1C(=O)CN=C(c2ccccc2)c2cc([N+](=O)[O-])ccc21` [Nimetazepam], for which the total nuclei by setting is: (1 µM) 2.61; (5 µM) 2.7.

For the molecule `FC(F)(F)c1cccc(N2CCNCC2)c1` [1-(3-trifluoromethylphenyl)piperazine hydrochloride (TFMPP)], the total nuclei by setting is: (1 µM) 3.54; (5 µM) 3.7.
